Measured values published in the supplement of paper PMC12889115.
Some of the results follow. These are raw signals, not scaled to a control.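 Primary screen: polymyxin B was added at a level permeabilizing Salmonella outer membranes while sparing inner membranes. DMSO wells, both with and without polymyxin B, established maximum growth. Plate-to-plate variation meant each plate was ranked on its own, and the lowest-OD600 compounds were selected as hits.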

Tested on: Salmonella enterica serovar Typhimurium SL1344
Assay: bacterial growth OD600 after 18 h with compound and polymyxin B; higher = more bacterial growth (less inhibition)
Conditions: 50 µM, Mueller-Hinton broth

Structure (SMILES) | bacterial growth OD600 (polymyxin B 1 µg/mL) | bacterial growth OD600 (polymyxin B 0.75 µg/mL)
O=C(NCc1ccc2c(c1)OCO2)c1coc(COc2cccc(F)c2F)n1 | 0.84 | 
Cc1ccc2[nH]c(CN(C)C(=O)C3CCC(=O)N(C4CCCCCC4)C3)nc2c1 (stereo not given) | 1.19 | 
O=C(c1ccc(N2CCCCCCC2)nc1)N1CCC(Cn2cccn2)CC1 | 0.645 | 
OC1CCCN(CCCNc2nncc(-c3cccc(Cl)c3)n2)C1 (stereo not given) |  | 0.772
CCNC(=O)c1cn(CC(C)C)cc(C(=O)NCCC(C)C)c1=O |  | 0.728
O=C1CCC(C(=O)N2CCC(CCn3cccn3)CC2)CN1Cc1ccccn1 (stereo not given) | 0.939 | 
CC(=O)NCCNc1ccc(-c2nc(-c3ccccc3F)no2)cn1 | 1.18 | 
CC(=O)Nc1cc(C(=O)NCc2nc(-c3ccccc3)cs2)cc2ncn(CCc3ccccn3)c12 |  | 0.906
O=C(Cc1cccnc1)N1CCc2onc(-c3ccc(F)c(F)c3)c2C1 |  | 0.724
COc1cccc(O)c1CN1CCCC(c2[nH]ncc2CC(C)C)C1 (stereo not given) |  | 0.574

Some of the entries so far, as labelled records.
OC1CCCN(CCCNc2nncc(-c3cccc(Cl)c3)n2)C1 (stereo not given)
  bacterial growth OD600 (polymyxin B 0.75 µg/mL): 0.772
O=C(Cc1cccnc1)N1CCc2onc(-c3ccc(F)c(F)c3)c2C1
  bacterial growth OD600 (polymyxin B 0.75 µg/mL): 0.724
